The values that follow come from paper PMC4619884.

By UniProt entry, the sequences of proteins in these tests, tags left out.
UniProt P47746: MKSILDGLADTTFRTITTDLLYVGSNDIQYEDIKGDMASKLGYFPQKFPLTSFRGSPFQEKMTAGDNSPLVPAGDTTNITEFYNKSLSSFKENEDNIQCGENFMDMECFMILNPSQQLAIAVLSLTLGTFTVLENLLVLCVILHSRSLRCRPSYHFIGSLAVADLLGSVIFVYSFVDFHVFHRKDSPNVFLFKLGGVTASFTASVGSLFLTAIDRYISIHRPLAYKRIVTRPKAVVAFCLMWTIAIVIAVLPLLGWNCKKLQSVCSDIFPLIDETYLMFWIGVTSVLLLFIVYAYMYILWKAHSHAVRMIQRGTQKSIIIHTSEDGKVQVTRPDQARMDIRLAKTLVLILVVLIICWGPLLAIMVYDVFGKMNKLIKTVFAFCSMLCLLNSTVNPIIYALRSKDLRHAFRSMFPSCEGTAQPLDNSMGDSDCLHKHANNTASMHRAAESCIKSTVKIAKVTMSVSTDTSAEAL
UniProt Q5SQX6: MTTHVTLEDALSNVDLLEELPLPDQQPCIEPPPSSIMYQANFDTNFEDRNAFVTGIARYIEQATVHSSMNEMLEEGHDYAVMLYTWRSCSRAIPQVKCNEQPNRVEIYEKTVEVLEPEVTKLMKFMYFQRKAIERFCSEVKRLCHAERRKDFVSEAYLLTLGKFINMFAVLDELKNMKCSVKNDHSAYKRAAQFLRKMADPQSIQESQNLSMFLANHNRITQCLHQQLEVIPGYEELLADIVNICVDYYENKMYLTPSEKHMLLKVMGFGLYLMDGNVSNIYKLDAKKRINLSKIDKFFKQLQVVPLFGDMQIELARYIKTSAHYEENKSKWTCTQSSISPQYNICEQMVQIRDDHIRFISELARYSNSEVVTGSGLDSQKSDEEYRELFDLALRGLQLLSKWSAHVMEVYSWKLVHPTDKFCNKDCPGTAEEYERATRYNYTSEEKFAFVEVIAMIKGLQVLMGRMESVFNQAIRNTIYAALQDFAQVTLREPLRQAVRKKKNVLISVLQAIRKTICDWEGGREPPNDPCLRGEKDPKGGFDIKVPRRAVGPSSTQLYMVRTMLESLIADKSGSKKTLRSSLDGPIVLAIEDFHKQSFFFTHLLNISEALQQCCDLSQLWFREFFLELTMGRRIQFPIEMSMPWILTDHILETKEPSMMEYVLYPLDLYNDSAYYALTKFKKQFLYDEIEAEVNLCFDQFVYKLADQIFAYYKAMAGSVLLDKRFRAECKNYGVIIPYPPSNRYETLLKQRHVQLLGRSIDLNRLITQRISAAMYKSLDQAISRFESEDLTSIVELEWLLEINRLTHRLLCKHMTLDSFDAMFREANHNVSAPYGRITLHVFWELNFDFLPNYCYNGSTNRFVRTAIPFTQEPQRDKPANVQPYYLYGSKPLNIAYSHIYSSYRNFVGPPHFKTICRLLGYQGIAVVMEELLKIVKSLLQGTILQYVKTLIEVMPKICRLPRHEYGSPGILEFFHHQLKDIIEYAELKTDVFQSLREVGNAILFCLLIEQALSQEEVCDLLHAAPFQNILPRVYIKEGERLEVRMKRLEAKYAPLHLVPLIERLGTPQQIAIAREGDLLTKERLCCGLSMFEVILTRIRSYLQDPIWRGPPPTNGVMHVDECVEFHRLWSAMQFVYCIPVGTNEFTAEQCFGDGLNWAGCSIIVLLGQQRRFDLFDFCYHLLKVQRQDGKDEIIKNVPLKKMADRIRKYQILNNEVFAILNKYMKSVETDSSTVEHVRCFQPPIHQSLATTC
UniProt P21279: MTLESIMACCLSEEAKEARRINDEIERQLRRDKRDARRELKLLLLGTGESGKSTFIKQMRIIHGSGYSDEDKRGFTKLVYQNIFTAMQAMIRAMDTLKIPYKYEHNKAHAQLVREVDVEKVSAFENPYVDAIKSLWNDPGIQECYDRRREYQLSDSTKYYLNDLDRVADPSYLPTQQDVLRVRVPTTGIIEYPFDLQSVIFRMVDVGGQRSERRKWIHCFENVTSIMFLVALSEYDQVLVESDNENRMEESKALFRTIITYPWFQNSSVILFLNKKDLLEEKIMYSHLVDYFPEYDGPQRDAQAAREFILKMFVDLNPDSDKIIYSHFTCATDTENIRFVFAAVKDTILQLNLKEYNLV

The chains are these.
B1: cannabinoid receptor-interacting protein 1, endogenous in mouse cortex (protein, UniProt Q5M8N0 1-164)
chain: MGDLPGLVRLSIALRIQPNDGPVFFKVDGQRFGQNRTIKLLTGSSYKVEVKIKPTTLQVENISIGGVLVPLELKGKEPDGERVVYTGIYDTEGVAPTKSGERQPIQITMPFTDIGTFETVWQVKFYNYHKRDHCQWGSPFSVIEYECKPNETRSLMWVNKESFL
B2: Wiskott-Aldrich syndrome protein-family verprolin-homologous protein 1 (WAVE1), endogenous in mouse cortex (protein, UniProt Q8R5H6 1-559)
chain: MPLVKRNIDPRHLCHTALPRGIKNELECVTNISLANIIRQLSSLSKYAEDIFGELFNEAHSFSFRVNSLQERVDRLSVSVTQLDPKEEELSLQDITMRKAFRSSTIQDQQLFDRKTLPIPLQETYDVCEQPPPLNILTPYRDDGKEGLKFYTNPSYFFDLWKEKMLQDTEDKRKEKRKQKQKNLDRPHEPEKVPRAPHDRRREWQKLAQGPELAEDDADLLHKHIEVANGPASHYETRPQTYVDHMDGSYSLSALPFSQMSELLTRAEERVLVRPHEPPPPPPMHGAGDAKPTPTCISSATGLIENRPQSPAAGRTPVFVSPTPPPPPPPLPSALSTSSLRASMTSTPPPPVPPPPPPPATALQAPAVPPPPAPLQIAPGVLHPAPPPIAPPLVQPSPPVARAAPVCETVPVHPLPQGEVQGLPPPPPPPPLPPPGIRPSSPVAVAALAHPPSGLHPAPSTAPGPHAPLMPPSPPSQVLPASEPKRHPSTLPVISDARSVLLEAIRKGIQLRKVEEQREQEAKHERIENDVATILSRRIAVEYSDSEDDSEFDEVDWLE
B3: NCK-associated protein 1 (NCKAP1), endogenous in mouse cortex (protein, UniProt P28660 1-1128)
chain: MSRSVLQPSQQKLAEKLTILNDRGVGMLTRLYNIKKACGDPKAKPSYLIDKNLESAVKFIVRKFPAVETRNNNQQLAQLQKEKSEILKNLALYYFTFVDVMEFKDHVCDLLNTIDVCQVFFDITVNFDLTKNYLDLTVTYTTLMILLSRIEERKAIIGLYNYAHEMTHGASDREYPRLGQMIVDYENPLKKMMEEFVPHSKSLSDALISLQMVYPRRNLSADQWRNAQLLSLISAPSTMLNPAQSDTMPCEYLSLDAMEKWIIFGFILCHGMLNTEATALNLWKLALQSSSCLSLFRDEVFHIHKAAEDLFVNIRGYNKRINDIRECKEAAVSHAGSMHRERRKFLRSALKELATVLSDQPGLLGPKALFVFMALSFARDEIIWLLRHADNMPKKSADDFIDKHIAELIFYMEELRAHVRKYGPVMQRYYVQYLSGFDAVVLNELVQNLSVCPEDESIIMSSFVNTMTSLSVKQVEDGEVFDFRGMRLDWFRLQAYTSVSKASLSLADHRELGKMMNTIIFHTKMVDSLVEMLVETSDLSIFCFYSRAFEKMFQQCLELPSQSRYSIAFPLLCTHFMSCTHELCPEERHHIGDRSLSLCNMFLDEMAKQARNLITDICTEQCTLSDQLLPKHCAKTISQAVNKKSKKQTGKKGEPEREKPGVESMRKNRLVVTNLDKLHTALSELCFSINYVPNMAVWEHTFTPREYLTSHLEIRFTKSIVGMTMYNQATQEIAKPSELLTSVRAYMTVLQSIENYVQIDITRVFNNVLLQQTQHLDSHGEPTITSLYTNWYLETLLRQVSNGHIAYFPAMKAFVNLPTENELTFNAEEYSDISEMRSLSELLGPYGMKFLSESLMWHISSQVAELKKLVVENVDVLTQMRTSFDKPDQMAALFKRLSSVDSVLKRMTIIGVILSFRSLAQEALRDVLSYHIPFLVSSIEDFKDHIPRETDMKVAMNVYELSSAAGLPCEIDPALVVALSSQKSENISPEEEYKIACLLMVFVAVSLPTLASNVMSQYSPAIEGHCNNIHCLAKAINQIAAALFTIHKGSIEDRLKEFLALASSSLLKIGQETDKTTTRNRESVYLLLDMIVQESPFLTMDLLESCFPYVLLRNAYHAVYKQSVTSSA

These are yes or no findings as the source states them, for the method shown. In cells and extracts the contact can be indirect. These calls come from enrichment with a bait or labelling near it, and not all partners need be listed.

The target in one assay is EGFP-tagged CB1 receptor (cannabinoid type 1 receptor), expressed from rAAV in mouse cortex (UniProt P47746). Nature of the assay: affinity purification with mass spectrometry; GFP-nanotrap beads on Na-cholate-solubilised cortical membrane fractions of mice expressing CB1-EGFP or GFP (control); nano-LC MS/MS; 5 independent immunoprecipitations; rPQ > 4 taken as specific.
For B1, the binding entry is recorded as “binds”.

For B2, the binding result is recorded as “binds”.

For B3, the binding entry is reported as “binds”.

A further assay has the same target. Described as above. This is another data set of the same source.
In the case of “cytoplasmic FMR1-interacting protein 2 (CYFIP2), endogenous in mouse cortex (from UniProt Q5SQX6 1-1253)”, the binding result is listed as “binds”.

“endogenous CB1 receptor (cannabinoid type 1 receptor) of mouse cortex (from UniProt P47746 1-473)”: the binding entry is listed as “binds”.

“guanine nucleotide-binding protein Gq, endogenous in mouse cortex (from UniProt P21279 1-359)”: the binding result is “binds”.
